No constants are given. Whether binding was seen depends on the method and setting. In cells and extracts the contact can be indirect. Some results given as binding are weak or reduced against the parent protein; the word gives no strength. Where a sequence is shown, tags or fusion partners need not be part of it.

By UniProt entry, the sequences of proteins in these tests, tags left out.
UniProt Q06330: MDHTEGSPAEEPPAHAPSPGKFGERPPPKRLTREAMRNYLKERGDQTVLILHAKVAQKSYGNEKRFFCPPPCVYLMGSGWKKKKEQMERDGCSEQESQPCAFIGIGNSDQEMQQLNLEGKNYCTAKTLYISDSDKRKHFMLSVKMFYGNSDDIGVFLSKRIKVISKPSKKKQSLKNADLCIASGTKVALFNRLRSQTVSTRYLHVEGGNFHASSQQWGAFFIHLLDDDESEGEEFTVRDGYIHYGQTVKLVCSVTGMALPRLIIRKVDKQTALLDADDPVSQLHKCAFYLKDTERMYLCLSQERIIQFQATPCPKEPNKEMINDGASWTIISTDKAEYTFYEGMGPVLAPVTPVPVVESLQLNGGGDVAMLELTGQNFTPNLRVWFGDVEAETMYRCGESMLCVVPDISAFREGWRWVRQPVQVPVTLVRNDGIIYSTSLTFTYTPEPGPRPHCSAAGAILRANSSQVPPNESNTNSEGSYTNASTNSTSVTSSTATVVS

The assay concerns the target RBPJ (human) (UniProt Q06330). In words: co-immunoprecipitation with Notch3 antibody from lysate of N3ICD-GFP-transduced cells, anti-RBPJ Western blot.

B1: human Notch3 intracellular domain (N3ICD), overexpressed from pWPI-N3ICD (N3ICD-GFP lentivirus) (receptor)
chain: MVMVARRKREHSTLWFPEGFSLHKDVASGHKGRREPVGQDALGMKNMAKGESLMGEVATDWMDTECPEAKRLKVEEPGMGAEEAVDCRQWTQHHLVAADIRVAPAMALTPPQGDADADGMDVNVRGPDGFTPLMLASFCGGALEPMPTEEDEADDTSASIISDLICQGAQLGARTDRTGETALHLAARYARADAAKRLLDAGADTNAQDHSGRTPLHTAVTADAQGVFQILIRNRSTDLDARMADGSTALILAARLAVEGMVEELIASHADVNAVDELGKSALHWAAAVNNVEATLALLKNGANKDMQDSKEETPLFLAAREGSYEAAKLLLDHFANREITDHLDRLPRDVAQERLHQDIVRLLDQPSGPRSPPGPHGLGPLLCPPGAFLPGLKAAQSGSKKSRRPPGKAGLGPQGPRGRGKKLTLACPGPLADSSVTLSPVDSLDSPRPFGGPPASPGGFPLEGPYAAATATAVSLAQLGGPGRAGLGRQPPGGCVLSLGLLNPVAVPLDWARLPPPAPPGPSFLLPLAPGPQLLNPGTPVSPQERPPPYLAVPGHGEEYPAAGAHSSPPKARFLRVPSEHPYLTPSPESPEHWASPSPPSLSDWSESTPSPATATGAMATTTGALPAQPLPLSVPSSLAQAQTQLGPQPEVTPKRQVLA
B1: the binding entry is listed as “binds”.
